Laboratory results: PubChem BioAssay AID1053208 (Peter MacCallum Cancer Centre, 2014)
Purpose: 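Synthetic lethal interactions between gene loss and doxorubicin in osteosarcoma cells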 (primary screen). Cell system: mouse osteosarcoma cells, early-passage culture from an engineered mouse model of fibroblastic bone tumour. Knock-down reagent: siRNA pool against mouse genes, 40 nM. Duration: about 120 h (48 h before drug, then 72 h with drug). Treatment: doxorubicin 100 nM for 72 h, roughly 30-40% inhibitory dose. Detection: 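Viability read as ATP luminescence after 72 h of 100 nM doxorubicin or none, duplicate wells averaged, scaled to non-targeting siRNA, then expressed as robust z-scores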. Reading the numbers: viability z-score with doxorubicin and doxorubicin viability vs non-targeting: higher = more viable cells under doxorubicin; viability z-score without drug: higher = more viable cells with knock-down alone; z-score of drug to no-drug ratio: higher = less drug sensitisation by knock-down. Active means: 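Called active if knock-down leaves viability unchanged without drug (z within -2 to 2) but lowers it with doxorubicin (z at or under -2)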.
The deposit covers about 17,000 reagents; below is an unselected part. Over the whole deposit, 788 (4.7%) got an active call. 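Calls rest on z-score classes alone; an extra cut-off of viability at most 70% of control was not applied to them.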 A number with no mark means an inactive call. No sequences are given here.

| Gene | PubChem SID | combined z-score class | viability z-score with doxorubicin | viability z-score without drug | z-score of drug to no-drug ratio | doxorubicin viability vs non-targeting |
| --- | --- | --- | --- | --- | --- | --- |
| Dpp8 | SID152274424 | no change with or without drug | 0.22 | 0.84 | -0.22 | 0.96 |
| Raet1c | SID152281740 | no change with or without drug | 0 | 0.34 | -0.11 | 0.94 |
| Tmlhe | SID152334329 | high cell count without drug only | 1.8 | 3.04 | -0.11 | 1.1 |
| Ccna2 | SID152310263 | no change with or without drug | 1.24 | 0.17 | 1.24 | 1.05 |
| Plxna1 | SID152291198 | low cell count without drug only | -0.45 | -2.36 | 1.46 | 0.9 |
| Hoxc13 | SID152307943 | no change with or without drug | -0.22 | -1.18 | 0.79 | 0.92 |
| Mesp1 | SID152273989 | no change with or without drug | 0.9 | 0.17 | 0.9 | 1.02 |
| Ube2a | SID152266468 | no change with or without drug | 0.9 | 0.34 | 0.79 | 1.02 |
| Usp54 | SID152306437 | no change with or without drug | 1.46 | -0.51 | 2.02 | 1.07 |
| Usp54 | SID152310483 | no change with or without drug | -0.67 | 0.84 | -1.12 | 0.88 |
| Slco1c1 | SID152326600 | no change with or without drug | -0.9 | -1.85 | 0.45 | 0.86 |
| Gsg1 | SID152338513 | no change with or without drug | 0.45 | 0.67 | 0.11 | 0.98 |
| Gtf3c4 | SID152308631 | no change with or without drug | 1.12 | 0.17 | 1.12 | 1.04 |
| Adpgk | SID152263386 | no change with or without drug | 0.9 | 0.17 | 0.9 | 1.02 |
| Zfp775 | SID152311653 | no change with or without drug | -1.57 | -0.67 | -1.12 | 0.8 |
| Slc12a2 | SID152305125 | no change with or without drug | -0.67 | 1.52 | -1.46 | 0.88 |
| Mpp1 | SID152334779 | no change with or without drug | -0.67 | -0.51 | -0.22 | 0.88 |
| Phospho2 | SID152288733 | no change with or without drug | -0.22 | -0.17 | 0 | 0.92 |
| Ggact | SID152335493 | high cell count with doxorubicin only | 2.02 | 0.17 | 2.14 | 1.12 |
| Caprin1 | SID152337438 | no change with or without drug | 1.57 | 0.51 | 1.35 | 1.08 |

Taken from above.
Under “doxorubicin viability vs non-targeting”, Slco1c1 [SID152326600] is entered as 0.86
Value for Mesp1 [SID152273989] in “doxorubicin viability vs non-targeting”: 1.02
Entry for Caprin1 [SID152337438] in “doxorubicin viability vs non-targeting”: 1.08
